A short description of series [1]: general procedure: Fmoc solid-phase peptide synthesis; Tentagel Rink Amide resin; H-Pro-2-ClTrt resin; DIC/HOBt. The settings on record: for final HPLC purity: whole synthesis, scale of the general procedure 0.05-0.9 mmol.
A short description of series [2]: general procedure: Fmoc solid-phase peptide synthesis; Tentagel Rink resin; DIC/HOBt. The settings on record: whole synthesis, scale 0.05 mmol.

On to [AzGly^9]dOT, for which, in series [1] (coupling step, on amount of N-terminal heptapeptide used, assuming 85% peptide content), the step yield entry is “˜39%”. In series [1], the “final HPLC purity” value is on record as 100.0%.
On to carba-6-[Cpa^2,Hyp^7,Gly(cPe)]dOT, for which the “final HPLC purity” value in series [1] stood at 100.0%. In series [2] (on loading of starting resin, assuming 85% peptide content), the isolated yield result was “˜66%”. Further, in series [2], the isolated mass is reported as 40.0 mg.

These data come from patent US8748564 (dated 2014).
